# Values quoted from earlier work as cited in US12728116B2, “Methods of treating multiple sclerosis” (Vanda Pharmaceuticals Inc., priority 2021, dated 2026).
# For at least one compound, name, drawing or mass did not settle the structure.
# Tested on: patients with relapsing multiple sclerosis
# Conditions: Teriflunomide 14 mg; TEMSO and TOWER studies; cited from earlier work
structure (smiles),measurement,value
"C/C(O)=C(\C#N)C(=O)Nc1ccc(C(F)(F)F)cc1 [Teriflunomide, reference compound]",Risk of 12-week CDP,statistically significant reduction
